Source: PubChem BioAssay AID686943 (Drosophila RNAi Screening Center, 2013)

- Screen: 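Knockdowns that increase or decrease active ERK after insulin receptor stimulation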 (primary screen)
- System: Drosophila S2R+ haemocyte-like cells expressing YFP-tagged ERK (Rolled)
- Reagent: long dsRNA against Drosophila genes
- Challenge: insulin stimulation versus unstimulated cells; dose and duration not given
- Read-out: 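Antibody staining for doubly phosphorylated ERK divided by ERK-YFP signal, as plate z-scores, in insulin-treated and untreated cells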
- Reading the numbers: replicate 1, z-score of dpERK with insulin: higher = more active ERK per ERK-YFP after insulin
In all, the deposit lists about 23,000 reagents; this is an unselected part of those with a known target gene and a result. 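Extra replicates exist only for a retested subset of genes; insulin dose and duration not given; both raised and lowered dpERK matter.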 Names joined by + are all predicted targets of the reagent. Further read-outs or replicates are left out here. Not given: the amount of reagent, the time to read-out.

predicted target	DRSC id	replicate 1, z-score of dpERK with insulin
eIF4A (eukaryotic translation initiation factor 4A)	DRSC03526	-2.54
CG1324	DRSC20496	1.19
CG31204	DRSC15106	-0.22
CG2111	DRSC18205	-0.26
CG4991	DRSC19928	0.17
CG31278	DRSC16051	0.28
CG15082	DRSC06513	-1.08
CG34006 (retired record)	DRSC13817	-0.68
CG32681	DRSC17646	0.02

Next part (2 carried over from the part before).
predicted target	DRSC id	replicate 1, z-score of dpERK with insulin
CG34006 (retired record)	DRSC13817	-0.68
CG32681	DRSC17646	0.02
CG7099	DRSC03006	0.16
CG42516 + Pbp49	DRSC06073	-0.19
CG11696	DRSC19417	-0.35
ND1 (retired record)	DRSC21273	0.21
stv (starvin)	DRSC09796	0.07
stv (starvin)	DRSC10111	0.01
CG12011	DRSC08219	-0.22
Ca-alpha1D (Ca[2+]-channel protein alpha[[1]] subunit D)	DRSC03284	-0.15
CG14238	DRSC14732	-1.5
Cp7Fc (Chorion protein c at 7F)	DRSC18035	-0.27
mEFTu2 (mitochondrial translation elongation factor Tu 2)	DRSC06163	0.96
CG17230	DRSC15203	0.38
Rabex-5 (Rabaptin-5-associated exchange factor for Rab5)	DRSC08628	0.45
CG14410	DRSC19596	0.95
